Source: the supplement of paper PMC10849652
The list shows a part of the results.

Protein sequences, listed by entry. Tags and fused reporters are not part of them. Lines headed by an entry give the natural chain unless they say otherwise; changes in a name come on top.
UniProt O75391: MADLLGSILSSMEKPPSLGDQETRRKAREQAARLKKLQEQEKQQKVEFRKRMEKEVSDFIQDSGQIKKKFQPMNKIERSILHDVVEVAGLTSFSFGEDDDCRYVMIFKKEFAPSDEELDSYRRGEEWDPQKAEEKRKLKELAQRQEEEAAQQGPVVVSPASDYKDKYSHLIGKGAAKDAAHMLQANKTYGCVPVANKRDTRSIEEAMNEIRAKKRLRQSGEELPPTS
UniProt O60271: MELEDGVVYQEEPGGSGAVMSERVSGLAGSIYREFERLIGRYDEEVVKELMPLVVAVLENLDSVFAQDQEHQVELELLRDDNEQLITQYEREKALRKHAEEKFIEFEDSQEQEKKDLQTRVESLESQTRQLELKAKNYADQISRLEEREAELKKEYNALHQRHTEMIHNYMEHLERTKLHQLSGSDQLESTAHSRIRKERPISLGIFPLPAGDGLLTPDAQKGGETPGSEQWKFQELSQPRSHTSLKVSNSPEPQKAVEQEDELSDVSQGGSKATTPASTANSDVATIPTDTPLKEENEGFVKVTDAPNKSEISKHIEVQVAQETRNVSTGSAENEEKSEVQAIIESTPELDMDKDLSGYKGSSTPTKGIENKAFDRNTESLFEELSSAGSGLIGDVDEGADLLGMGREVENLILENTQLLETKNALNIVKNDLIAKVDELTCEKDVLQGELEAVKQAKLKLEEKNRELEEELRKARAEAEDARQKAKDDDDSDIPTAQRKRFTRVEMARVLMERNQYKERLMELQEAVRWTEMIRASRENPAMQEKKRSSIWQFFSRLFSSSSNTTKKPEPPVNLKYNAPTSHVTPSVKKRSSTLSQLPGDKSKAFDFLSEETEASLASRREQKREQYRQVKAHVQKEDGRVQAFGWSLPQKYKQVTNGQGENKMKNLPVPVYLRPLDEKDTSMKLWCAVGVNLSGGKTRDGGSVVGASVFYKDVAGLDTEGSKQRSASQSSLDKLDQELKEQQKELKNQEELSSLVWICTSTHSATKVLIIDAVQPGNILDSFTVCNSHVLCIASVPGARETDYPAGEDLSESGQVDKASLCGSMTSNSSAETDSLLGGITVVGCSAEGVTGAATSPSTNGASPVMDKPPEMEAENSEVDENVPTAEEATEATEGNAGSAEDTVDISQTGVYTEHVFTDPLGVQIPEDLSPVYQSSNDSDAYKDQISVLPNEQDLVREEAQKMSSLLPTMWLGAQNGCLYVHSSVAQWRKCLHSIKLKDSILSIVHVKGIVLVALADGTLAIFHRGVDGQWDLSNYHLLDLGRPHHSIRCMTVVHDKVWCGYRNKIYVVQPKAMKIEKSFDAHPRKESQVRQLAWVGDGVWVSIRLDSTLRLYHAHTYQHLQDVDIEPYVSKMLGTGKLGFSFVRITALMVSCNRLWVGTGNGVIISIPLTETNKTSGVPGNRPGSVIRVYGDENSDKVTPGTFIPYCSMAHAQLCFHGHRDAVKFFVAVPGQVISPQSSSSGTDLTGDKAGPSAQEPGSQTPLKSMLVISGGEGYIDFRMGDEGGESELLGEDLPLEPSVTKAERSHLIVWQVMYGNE
UniProt Q96EX1: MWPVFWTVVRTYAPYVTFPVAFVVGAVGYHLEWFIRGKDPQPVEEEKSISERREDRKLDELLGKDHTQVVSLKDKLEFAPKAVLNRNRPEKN
UniProt O95149, whole entry, looked up: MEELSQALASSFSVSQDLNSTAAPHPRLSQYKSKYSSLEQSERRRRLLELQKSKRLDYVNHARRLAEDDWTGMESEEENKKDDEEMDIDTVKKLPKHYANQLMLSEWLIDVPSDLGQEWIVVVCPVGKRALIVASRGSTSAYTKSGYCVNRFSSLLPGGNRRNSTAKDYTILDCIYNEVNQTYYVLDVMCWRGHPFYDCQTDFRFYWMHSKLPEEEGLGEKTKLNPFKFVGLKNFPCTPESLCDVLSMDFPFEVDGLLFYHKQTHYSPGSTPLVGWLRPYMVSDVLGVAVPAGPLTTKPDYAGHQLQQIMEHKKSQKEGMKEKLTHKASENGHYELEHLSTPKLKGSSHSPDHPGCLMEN
UniProt Q9H2G2: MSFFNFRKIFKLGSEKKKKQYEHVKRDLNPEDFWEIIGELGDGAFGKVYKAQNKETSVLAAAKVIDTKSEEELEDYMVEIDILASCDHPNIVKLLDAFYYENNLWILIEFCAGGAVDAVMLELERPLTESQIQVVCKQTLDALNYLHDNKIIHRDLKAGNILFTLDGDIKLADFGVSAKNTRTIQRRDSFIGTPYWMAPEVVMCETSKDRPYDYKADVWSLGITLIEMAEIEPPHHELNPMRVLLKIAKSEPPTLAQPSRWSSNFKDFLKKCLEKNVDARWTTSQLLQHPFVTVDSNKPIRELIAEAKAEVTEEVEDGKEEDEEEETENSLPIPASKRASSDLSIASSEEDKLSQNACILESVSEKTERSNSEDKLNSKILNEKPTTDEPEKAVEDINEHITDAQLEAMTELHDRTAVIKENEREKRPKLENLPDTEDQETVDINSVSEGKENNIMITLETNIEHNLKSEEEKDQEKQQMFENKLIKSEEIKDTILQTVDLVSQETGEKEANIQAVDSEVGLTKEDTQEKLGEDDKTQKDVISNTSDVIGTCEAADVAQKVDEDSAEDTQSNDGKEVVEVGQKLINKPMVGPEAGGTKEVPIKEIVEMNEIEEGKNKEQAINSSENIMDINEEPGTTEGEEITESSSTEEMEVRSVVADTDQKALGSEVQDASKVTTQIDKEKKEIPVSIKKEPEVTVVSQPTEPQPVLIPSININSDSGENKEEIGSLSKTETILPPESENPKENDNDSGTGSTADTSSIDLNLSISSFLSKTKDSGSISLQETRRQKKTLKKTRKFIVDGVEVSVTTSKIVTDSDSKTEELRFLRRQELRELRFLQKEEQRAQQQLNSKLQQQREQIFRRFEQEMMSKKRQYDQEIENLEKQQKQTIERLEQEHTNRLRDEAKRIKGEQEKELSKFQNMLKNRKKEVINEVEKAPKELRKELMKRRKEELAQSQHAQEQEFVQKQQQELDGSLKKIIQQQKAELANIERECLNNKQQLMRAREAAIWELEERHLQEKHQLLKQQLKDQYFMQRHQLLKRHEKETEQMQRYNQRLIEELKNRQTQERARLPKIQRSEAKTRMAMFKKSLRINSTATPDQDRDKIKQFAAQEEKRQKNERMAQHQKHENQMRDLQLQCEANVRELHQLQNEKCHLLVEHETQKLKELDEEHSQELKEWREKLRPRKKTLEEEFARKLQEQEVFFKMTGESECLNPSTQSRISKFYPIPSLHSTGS
UniProt Q96SB8: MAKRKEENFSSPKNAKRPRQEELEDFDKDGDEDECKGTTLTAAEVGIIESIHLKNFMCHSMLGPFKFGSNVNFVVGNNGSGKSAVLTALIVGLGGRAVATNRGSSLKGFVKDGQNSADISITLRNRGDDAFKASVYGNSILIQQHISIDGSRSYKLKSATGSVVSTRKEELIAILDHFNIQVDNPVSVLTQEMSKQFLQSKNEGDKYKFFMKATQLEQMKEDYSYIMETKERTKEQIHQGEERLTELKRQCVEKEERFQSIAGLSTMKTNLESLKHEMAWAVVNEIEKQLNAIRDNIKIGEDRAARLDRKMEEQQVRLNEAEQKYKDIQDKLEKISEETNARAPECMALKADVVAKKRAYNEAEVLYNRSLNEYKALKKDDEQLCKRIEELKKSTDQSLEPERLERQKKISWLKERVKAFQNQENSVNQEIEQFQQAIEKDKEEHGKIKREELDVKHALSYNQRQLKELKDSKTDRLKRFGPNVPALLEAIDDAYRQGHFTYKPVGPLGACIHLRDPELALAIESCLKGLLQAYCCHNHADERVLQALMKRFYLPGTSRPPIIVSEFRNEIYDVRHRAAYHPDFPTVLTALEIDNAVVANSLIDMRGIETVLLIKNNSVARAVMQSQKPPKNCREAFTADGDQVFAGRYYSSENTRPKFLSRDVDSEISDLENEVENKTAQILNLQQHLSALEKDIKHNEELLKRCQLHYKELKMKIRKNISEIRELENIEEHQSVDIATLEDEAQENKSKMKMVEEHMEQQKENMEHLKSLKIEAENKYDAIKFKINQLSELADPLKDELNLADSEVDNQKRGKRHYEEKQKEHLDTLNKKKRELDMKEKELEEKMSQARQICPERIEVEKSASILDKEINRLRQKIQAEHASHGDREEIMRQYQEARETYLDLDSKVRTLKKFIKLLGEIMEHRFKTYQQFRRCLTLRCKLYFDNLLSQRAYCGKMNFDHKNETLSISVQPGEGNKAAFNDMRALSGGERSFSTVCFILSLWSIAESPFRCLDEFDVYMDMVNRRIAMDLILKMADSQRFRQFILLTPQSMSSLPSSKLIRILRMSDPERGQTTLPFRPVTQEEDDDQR
UniProt Q92536: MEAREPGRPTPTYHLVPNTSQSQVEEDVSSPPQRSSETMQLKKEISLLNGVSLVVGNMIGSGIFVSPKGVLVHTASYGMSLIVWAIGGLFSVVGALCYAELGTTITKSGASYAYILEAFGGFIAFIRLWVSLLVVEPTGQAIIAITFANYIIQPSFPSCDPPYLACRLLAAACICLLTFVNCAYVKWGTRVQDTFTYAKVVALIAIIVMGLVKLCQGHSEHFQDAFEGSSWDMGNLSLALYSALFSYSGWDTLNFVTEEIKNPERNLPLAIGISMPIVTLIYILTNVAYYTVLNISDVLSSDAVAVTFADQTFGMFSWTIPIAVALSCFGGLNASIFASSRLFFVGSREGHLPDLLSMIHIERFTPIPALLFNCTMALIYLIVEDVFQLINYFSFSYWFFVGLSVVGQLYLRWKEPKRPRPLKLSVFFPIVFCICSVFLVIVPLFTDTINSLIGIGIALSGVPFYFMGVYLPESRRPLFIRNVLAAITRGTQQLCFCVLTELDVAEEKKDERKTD
UniProt P62318, whole entry, looked up: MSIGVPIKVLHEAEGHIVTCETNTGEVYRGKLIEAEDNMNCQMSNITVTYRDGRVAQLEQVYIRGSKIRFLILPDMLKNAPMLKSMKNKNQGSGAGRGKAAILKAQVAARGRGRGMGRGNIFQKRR
UniProt P57768: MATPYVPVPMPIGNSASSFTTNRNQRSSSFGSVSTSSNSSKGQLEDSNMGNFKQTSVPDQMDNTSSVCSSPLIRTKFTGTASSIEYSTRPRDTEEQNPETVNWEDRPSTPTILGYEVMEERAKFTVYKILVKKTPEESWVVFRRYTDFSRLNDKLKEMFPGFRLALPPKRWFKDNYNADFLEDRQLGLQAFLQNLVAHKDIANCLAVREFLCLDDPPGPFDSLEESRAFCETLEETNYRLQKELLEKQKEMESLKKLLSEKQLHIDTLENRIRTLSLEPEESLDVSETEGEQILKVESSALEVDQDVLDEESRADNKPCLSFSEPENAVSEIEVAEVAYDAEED
UniProt Q969G3, whole entry, looked up: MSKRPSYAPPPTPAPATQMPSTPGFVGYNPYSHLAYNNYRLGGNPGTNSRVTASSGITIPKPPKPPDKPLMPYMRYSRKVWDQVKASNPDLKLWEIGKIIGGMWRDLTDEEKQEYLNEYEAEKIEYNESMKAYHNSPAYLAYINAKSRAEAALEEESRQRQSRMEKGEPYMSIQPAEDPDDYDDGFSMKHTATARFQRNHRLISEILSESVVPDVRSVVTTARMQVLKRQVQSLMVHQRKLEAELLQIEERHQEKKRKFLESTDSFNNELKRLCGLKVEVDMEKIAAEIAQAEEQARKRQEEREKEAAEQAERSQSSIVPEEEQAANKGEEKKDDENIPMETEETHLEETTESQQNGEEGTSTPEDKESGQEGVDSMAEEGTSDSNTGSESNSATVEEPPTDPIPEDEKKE
UniProt P09012, whole entry, looked up: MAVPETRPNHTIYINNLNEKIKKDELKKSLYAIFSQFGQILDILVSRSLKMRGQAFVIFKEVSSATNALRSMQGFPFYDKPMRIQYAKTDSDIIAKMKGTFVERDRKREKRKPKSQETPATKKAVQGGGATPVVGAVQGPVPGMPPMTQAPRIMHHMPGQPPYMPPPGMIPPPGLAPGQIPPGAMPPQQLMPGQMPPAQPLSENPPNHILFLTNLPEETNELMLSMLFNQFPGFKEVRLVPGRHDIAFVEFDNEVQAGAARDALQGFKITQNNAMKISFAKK
UniProt Q00796: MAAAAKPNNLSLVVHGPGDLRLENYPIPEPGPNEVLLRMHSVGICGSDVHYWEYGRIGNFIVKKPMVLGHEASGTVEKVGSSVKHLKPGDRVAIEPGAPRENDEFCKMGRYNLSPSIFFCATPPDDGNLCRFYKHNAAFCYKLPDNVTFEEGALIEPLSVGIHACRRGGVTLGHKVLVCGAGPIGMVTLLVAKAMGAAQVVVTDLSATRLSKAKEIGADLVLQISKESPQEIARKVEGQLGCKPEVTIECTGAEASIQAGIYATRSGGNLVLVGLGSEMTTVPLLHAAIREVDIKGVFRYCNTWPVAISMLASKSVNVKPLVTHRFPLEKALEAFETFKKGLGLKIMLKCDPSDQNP
UniProt O75940: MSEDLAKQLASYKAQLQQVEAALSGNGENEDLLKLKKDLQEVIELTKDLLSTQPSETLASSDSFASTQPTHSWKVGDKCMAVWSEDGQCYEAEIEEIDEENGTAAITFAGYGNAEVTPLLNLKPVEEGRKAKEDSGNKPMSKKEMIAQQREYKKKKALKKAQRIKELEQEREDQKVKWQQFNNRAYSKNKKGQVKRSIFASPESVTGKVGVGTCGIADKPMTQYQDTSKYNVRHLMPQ

Tests used:
Assay in all cases: log2 fold change, soluble protein after heating vs DMSO (PISA); higher = thermal stabilisation; K562 cells, 10 uM, 30 min; active = over 0.2 and 3.5 SD of the protein, either way, in both replicates (recomputed)
[1] = compound: CC1=C(C=C(C=C1)NC(=O)C2=CC(=CC=C2)C(C)(C)C#N)NC3=CC4=C(C=C3)N=CN(C4=O)C
Summary of the method: (§1)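 K562 cells at 2×10^6 cells/mL were treated for 30 min with 10 μM compound, and aliquots were heated for 3 min over 48°C-58°C before pooling. Extraction used PBS with 0.5% NP-40 at 4°C, and soluble protein was the supernatant after 21,000xg for 90 min, measured by TMTpro 16plex LC-MS/MS with channel sums equalised. Thermal stability values, relative to control samples and from duplicates, are log2 fold changes.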

[2] = compound: CC1=C(C=C(C=C1)NC(=O)C2=CC(=CC=C2)N(C)C)NC(=O)C3=CC=C(C=C3)O
Summary of the method: as §1

[3] = compound: CC1=CC=C(C=C1)SC2=C3C=C(SC3=CN=C2)C(=O)N
Summary of the method: as §1

[4] = compound: CC1=NC(=CC=C1)C2=C(N=C(N2)C(C)(C)C)C3=CC4=NC=CN=C4C=C3
Summary of the method: as §1

Nexturastat A = compound: CCCCN(Cc1ccc(C(=O)NO)cc1)C(=O)Nc1ccccc1 [Nexturastat A]
Summary of the method: as §1

vemurafenib = compound: CCCS(=O)(=O)Nc1ccc(F)c(C(=O)c2c[nH]c3ncc(-c4ccc(Cl)cc4)cc23)c1F [vemurafenib]
Summary of the method: as §1

[5] = compound: CCCS(=O)(=O)Nc1ccc(F)c(C(=O)c2c[nH]c3ncc(Cl)cc23)c1F
Summary of the method: as §1

[6] = compound: CCCc1cc(C)[nH]c(=O)c1CNC(=O)c1cc(-c2ccnc(N3CCN(C)CC3)c2)cc2c1cnn2C(C)C
Summary of the method: as §1

givinostat = compound: CCN(CC)Cc1ccc2cc(COC(=O)Nc3ccc(C(=O)NO)cc3)ccc2c1 [givinostat]
Summary of the method: as §1

barasertib = compound: CCN(CCCOc1ccc2c(Nc3cc(CC(=O)Nc4cccc(F)c4)[nH]n3)ncnc2c1)CCOP(=O)(O)O [barasertib]
Summary of the method: as §1

Measured: log2 fold change

SMPD2 (UniProt O60906)
inactive: [1] -0.052 | [2] -0.019 | [3] 0.04 | [4] -0.112 | Nexturastat A 0.063 | vemurafenib 0.042 | [5] -0.039 | [6] -0.058 | givinostat 0.033 | barasertib 0.014

SMPD4 isoform 4 (UniProt Q9NXE4)
inactive: [1] 0.022 | [2] -0.011 | [3] 0.075 | [4] 0.112 | Nexturastat A 0.075 | vemurafenib 0.02 | [5] 0.058 | [6] -0.034 | givinostat 0.066 | barasertib 0.13

SPAG7 (UniProt O75391)
inactive: [1] 0.007 | [2] -0.003 | [3] 0.004 | [4] 0 | Nexturastat A -0.012 | vemurafenib -0.005 | [5] -0.024 | [6] -0.053 | givinostat 0.015 | barasertib -0.022

SPAG9 (UniProt O60271)
inactive: [1] 0.023 | [2] -0.045 | [3] 0.002 | [4] 0.004 | Nexturastat A 0.039 | vemurafenib 0.028 | [5] 0.053 | [6] 0.014 | givinostat 0.06 | barasertib 0.037

SMIM12 (UniProt Q96EX1)
inactive: [1] -0.032 | [2] -0.021 | [3] -0.02 | [4] -0.197 | Nexturastat A -0.045 | vemurafenib -0.132 | [5] -0.046 | [6] 0.467 | givinostat -0.008 | barasertib 0.008

SNUPN (UniProt O95149)
inactive: [1] -0.078 | [2] 0.052 | [3] 0.013 | [4] 0.026 | Nexturastat A -0.037 | vemurafenib -0.024 | [5] -0.065 | [6] 0.013 | givinostat -0.017 | barasertib 0.024

SLK isoform 2 (UniProt Q9H2G2)
inactive: [1] -0.078 | [2] -0.07 | [3] 0.051 | [4] 0.02 | Nexturastat A -0.007 | vemurafenib 0.03 | [5] 0.092 | [6] 0.026 | givinostat 0 | barasertib 0.047

SMC6 isoform 2 (UniProt Q96SB8)
inactive: [1] -0.002 | [2] 0.023 | [3] -0.013 | [4] -0.053 | Nexturastat A -0.009 | vemurafenib 0.022 | [5] -0.071 | [6] -0.035 | givinostat 0.016 | barasertib -0.022

SMC1B isoform 3 (UniProt Q8NDV3)
inactive: [1] -0.031 | [2] 0.008 | [3] -0.017 | [4] -0.042 | Nexturastat A 0.069 | vemurafenib 0.012 | [5] 0.078 | [6] -0.073 | givinostat 0.084 | barasertib -0.086

SLC7A6 (UniProt Q92536)
inactive: [1] 0.021 | [2] 0.027 | [3] 0.023 | [4] 0.017 | Nexturastat A 0.05 | vemurafenib 0.03 | [5] -0.046 | [6] -0.005 | givinostat 0.012 | barasertib 0.036

SMYD2 (UniProt Q9NRG4)
inactive: [1] -0.041 | [2] -0.02 | [3] 0.072 | [4] 0.021 | Nexturastat A 0.113 | vemurafenib 0.135 | [5] 0.099 | [6] 0.177 | givinostat 0.053 | barasertib -0.043

SNRPD3 (UniProt P62318)
inactive: [1] -0.03 | [2] 0.031 | [3] -0.048 | [4] -0.079 | Nexturastat A -0.023 | vemurafenib -0.015 | [5] -0.102 | [6] -0.126 | givinostat 0 | barasertib -0.039

SNRPB isoform 3 (UniProt P14678)
inactive: [1] -0.009 | [2] 0.025 | [3] -0.039 | [4] -0.042 | Nexturastat A 0.065 | vemurafenib -0.011 | [5] -0.05 | [6] -0.073 | givinostat -0.019 | barasertib -0.106

SNRPG (UniProt P62308)
inactive: [1] 0.007 | [2] -0.003 | [3] -0.001 | [4] -0.074 | Nexturastat A 0.04 | vemurafenib -0.032 | [5] -0.05 | [6] -0.07 | givinostat -0.05 | barasertib -0.012

SNX16 (UniProt P57768)
inactive: [1] 0.008 | [2] -0.003 | [3] 0.081 | [4] 0.058 | Nexturastat A -0.067 | vemurafenib 0.027 | [5] 0.114 | [6] -0.047 | givinostat -0.031 | barasertib -0.056

SMS (UniProt P52788)
inactive: [1] -0.022 | [2] 0.011 | [3] 0.048 | [4] 0.03 | Nexturastat A -0.105 | vemurafenib -0.033 | [5] -0.006 | [6] -0.048 | givinostat -0.042 | barasertib -0.003

SNRPB2 (UniProt P08579)
inactive: [1] -0.016 | [2] 0.007 | [3] -0.026 | [4] -0.014 | Nexturastat A -0.015 | vemurafenib -0.036 | [5] -0.042 | [6] -0.048 | givinostat -0.051 | barasertib -0.056

Two consecutive entries from above:
SNRPB isoform 3 (UniProt P14678)
inactive: [1] -0.009 | [2] 0.025 | [3] -0.039 | [4] -0.042 | Nexturastat A 0.065 | vemurafenib -0.011 | [5] -0.05 | [6] -0.073 | givinostat -0.019 | barasertib -0.106

SNRPG (UniProt P62308)
inactive: [1] 0.007 | [2] -0.003 | [3] -0.001 | [4] -0.074 | Nexturastat A 0.04 | vemurafenib -0.032 | [5] -0.05 | [6] -0.07 | givinostat -0.05 | barasertib -0.012

Additional records.

SNRNP40 (UniProt Q96DI7)
inactive: [1] 0.01 | [2] 0.001 | [3] -0.06 | [4] -0.023 | Nexturastat A 0 | vemurafenib -0.027 | [5] -0.046 | [6] -0.037 | givinostat -0.035 | barasertib -0.04

SMARCE1 (UniProt Q969G3)
inactive: [1] -0.025 | [2] -0.058 | [3] -0.003 | [4] 0.074 | Nexturastat A 0.121 | vemurafenib -0.123 | [5] 0.085 | [6] -0.522 | givinostat 0.028 | barasertib 0.042

SOAT1 (UniProt P35610)
inactive: [1] 0.259 | [2] -0.044 | [3] 0.038 | [4] -0.03 | Nexturastat A 0.002 | vemurafenib -0.036 | [5] -0.015 | [6] -0.137 | givinostat 0.152 | barasertib 0.001

SNX6 (UniProt Q9UNH7)
inactive: [1] -0.04 | [2] -0.016 | [3] 0.019 | [4] 0.021 | Nexturastat A -0.025 | vemurafenib -0.003 | [5] 0.076 | [6] 0.006 | givinostat 0.077 | barasertib 0.079

SMARCC2 (UniProt Q8TAQ2)
inactive: [1] -0.113 | [2] -0.066 | [3] -0.031 | [4] -0.025 | Nexturastat A 0.031 | vemurafenib 0.059 | [5] 0.098 | [6] 0.058 | givinostat 0.182 | barasertib 0.065

SNRPA (UniProt P09012)
inactive: [1] -0.027 | [2] 0.039 | [3] -0.087 | [4] -0.051 | Nexturastat A 0.133 | vemurafenib -0.024 | [5] -0.085 | [6] -0.019 | givinostat -0.071 | barasertib -0.114

SMAD4 (UniProt Q13485)
inactive: [1] -0.094 | [2] -0.045 | [3] 0.027 | [4] 0.011 | Nexturastat A 0.017 | vemurafenib -0.016 | [5] 0.045 | [6] -0.025 | givinostat 0.025 | barasertib 0.03

SNRPC (UniProt P09234)
inactive: [1] -0.008 | [2] -0.037 | [3] -0.047 | [4] 0.004 | Nexturastat A 0.063 | vemurafenib 0 | [5] -0.069 | [6] 0 | givinostat -0.002 | barasertib -0.012

SMARCA5 (UniProt O60264)
inactive: [1] 0.042 | [2] -0.041 | [3] 0.038 | [4] 0.014 | Nexturastat A 0.107 | vemurafenib 0.085 | [5] 0.129 | [6] 0.032 | givinostat 0.149 | barasertib 0.109

SMAD9 (UniProt O15198)
inactive: [1] -0.012 | [2] 0.029 | [3] 0.005 | [4] 0.028 | Nexturastat A 0.04 | vemurafenib 0.122 | [5] 0.104 | [6] -0.032 | givinostat 0.108 | barasertib 0.054

SORD (UniProt Q00796)
inactive: [1] -0.032 | [2] 0.001 | [3] 0.022 | [4] -0.004 | Nexturastat A -0.035 | vemurafenib 0.009 | [5] 0.004 | [6] -0.024 | givinostat -0.121 | barasertib 0.007

SMNDC1 (UniProt O75940)
inactive: [1] 0.01 | [2] -0.024 | [3] -0.011 | [4] -0.012 | Nexturastat A 0.029 | vemurafenib 0.01 | [5] -0.052 | [6] -0.102 | givinostat -0.033 | barasertib -0.01

SMC4 (UniProt Q9NTJ3)
inactive: [1] 0.01 | [2] -0.038 | [3] -0.001 | [4] -0.008 | Nexturastat A 0.039 | vemurafenib 0.031 | [5] 0.049 | [6] 0.037 | givinostat 0.046 | barasertib 0.025
